Data published in PubChem BioAssay AID1347076 (National Center for Advancing Translational Sciences (NCATS), 2019).
Hit rate of the full screen: of about 400,000 compounds, about 13,000 (3.2%) were called active. The inconclusive results got no clear call from the source; some entries with a clear call stand among them for comparison. Calls follow the shape of the dose curve; as a rule, active = well fitted cell-killing curve with a large enough effect; inconclusive = small, poorly fitted or top-dose-only effect, or effect the other way; inactive = flat fitted curve, though single readings scatter. Where the call is inconclusive, the potency comes from a doubtful curve fit.

assay: qHTS assay for MDR1-selective chemotherapeutics: Primary screen using the drug-selected MDR subline cells KB-V1; details: KB-V1 MDR cells viability, CellTiter-Glo, 72 h; activity change, negative = cytotoxicity: at 46.1 µM (top of the series); also: nearly all actives have a fitted effect of over 60% in size
Summary of the method: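 qHTS viability screen in drug-selected KB-V1 MDR cells: 72 h compound treatment at 37 degrees C, ATP luminescence end point.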
% is scaled to controls: 0 for no effect and ±100 for the full control effect; potency is read from the fitted curve at half-maximal effect.

SMILES | activity change, negative = cytotoxicity | Potency
O=C(CNC(=O)C1CCCCC1)OC(C(=O)c1ccccc1)c1ccccc1 (stereo unspecified) | inactive: 5.16% | 
O=C(CCNC(=O)N1CC(=O)Nc2ccccc21)NCc1cccc(Cl)c1 |  | inconclusive: 20.6 µM [rising, single point]
COc1cccc(-c2nc(CS(=O)(=O)CC(=O)NC3CCC(C)CC3)c(C)o2)c1 (stereo unspecified) |  | inconclusive: 4.11 µM [cytotoxic, full curve]
CCOC(=O)N(NC(=O)C(O)(CC(C)C)CC(C)C)c1ccccc1 |  | inconclusive: 14.6 µM [cytotoxic, partial curve, poor fit]
N/C(=N\OC(=O)CCCOc1ccccc1)c1ccc([N+](=O)[O-])cc1 |  | inconclusive: 0.0092 µM [rising, full curve]
O=C(CC1Sc2ccccc2NC1=O)NNc1cccc(Cl)c1Cl (stereo unspecified) |  | active: 20.6 µM
S=C1SC2(CCCCCC2)NC2=C1CCCCC2 |  | inconclusive: 14.6 µM [cytotoxic, partial curve, poor fit]
O=C1CC(SC(=Nc2ccccc2)Nc2ccccc2)C(=O)N1c1ccc(Cl)c(Cl)c1 (stereo unspecified) |  | active: 16.4 µM
COc1ccc(CC(=O)n2[nH]c(=O)cc(C)c2=O)cc1OC | inactive: 6.97% | 
COc1ccc(Br)cc1CN(C)CC(=O)Nc1cc(Cl)ccc1Cl |  | active: 7.31 µM
C[n+]1ccc(/C=C/c2ccccc2O)c2ccccc21 |  | inconclusive: 2.59 µM [rising, full curve, poor fit]
CN(C)c1cc(O)c(C(=S)Nc2ccccc2)c(N(C)C)c1 |  | active: 16.4 µM
CC(Sc1nnc(N)s1)C(=O)Nc1ccc2c(c1)OCO2 (stereo unspecified) |  | inconclusive: 23.1 µM [rising, partial curve, poor fit]
O=C(Nc1c(-c2ccc3c(c2)OCO3)[nH][nH]c1=O)c1ccccc1 | inactive: 0% | 
O=C(CNC(=O)C1CCCCC1)OCC(=O)c1ccccc1 |  | inconclusive: 20.6 µM [rising, single point]
Cc1ccc(S(=O)(=O)NCc2ccc(C(=O)NC3CCCCC3)cc2)cc1 |  | inconclusive: 2.91 µM [cytotoxic, full curve, poor fit]
S=C(NCCc1ccc(Cl)cc1)NC1CCCCC1 |  | inconclusive: 29.1 µM [cytotoxic, single point]
COc1ccccc1N1CCN(Cc2cc(=O)c(OCC(=O)Nc3ccccc3)co2)CC1 |  | inconclusive: 20.6 µM [cytotoxic, single point]
Cc1cc(C)c(NC(=O)CNC(=O)COC(=O)CN2C(=O)NC3(CCCC3)C2=O)c(C)c1 | inactive: 0% | 
C=CCOC(=O)C1=C(C)Nc2nnnn2C1c1cc(OC)ccc1OC (stereo unspecified) |  | inconclusive: 16.4 µM [cytotoxic, partial curve, poor fit]
COc1cc(OC)c(-c2nnc(-c3ccc(OC)c(OC)c3OC)o2)cc1OC |  | inconclusive: 15.8 µM [cytotoxic, partial curve]
Cc1cc(NS(=O)(=O)c2ccc(NC(=S)NC(=O)/C=C/c3ccccc3)cc2)no1 |  | inconclusive: 20.6 µM [rising, single point]
O=C(Cc1ccc(Cl)cc1)NCCc1ccc(F)cc1 | inactive: 2.48% | 
COc1ccccc1NC(=O)c1cccc(S(=O)(=O)N2CCN(Cc3ccccc3)CC2)c1 | inactive: -5.07% | 

Look-ups from the entries so far.
Potency with COc1cc(OC)c(-c2nnc(-c3ccc(OC)c(OC)c3OC)o2)cc1OC reads inconclusive: 15.8 µM [cytotoxic, partial curve]
activity change, negative = cytotoxicity with O=C(CNC(=O)C1CCCCC1)OC(C(=O)c1ccccc1)c1ccccc1 (stereo unspecified) reads inactive: 5.16%
Potency with COc1cccc(-c2nc(CS(=O)(=O)CC(=O)NC3CCC(C)CC3)c(C)o2)c1 (stereo unspecified) reads inconclusive: 4.11 µM [cytotoxic, full curve]
Potency with Cc1ccc(S(=O)(=O)NCc2ccc(C(=O)NC3CCCCC3)cc2)cc1 reads inconclusive: 2.91 µM [cytotoxic, full curve, poor fit]

(cont.)

SMILES | activity change, negative = cytotoxicity | Potency
Cc1ccc[n+](CC(=O)Nc2cccc([N+](=O)[O-])c2)c1 |  | inconclusive: 16.4 µM [cytotoxic, partial curve, poor fit]
O=C(/C=C/c1ccc(Br)cc1)c1ccco1 | inactive: 4.25% | 
CC(=O)Nc1ccc(C(=O)N2CCCCC2c2cc(C(=O)NC(C)C)no2)cc1 (stereo unspecified) | inactive: 6.34% | 
O=C(Nc1cc(C(F)(F)F)ccc1Cl)C(NCc1ccccc1)c1ccccc1 (stereo unspecified) |  | active: 20.6 µM
CCC1Oc2ccc(C)cc2N(CC(=O)N2CCCC2)C1=O (stereo unspecified) | inactive: 12.2% | 
Cc1nc(N2CCN(c3ccccn3)CC2)c2c(C)c(C(=O)Nc3ccc(F)cc3Cl)sc2n1 |  | inconclusive: 25.9 µM [cytotoxic, single point]
Clc1cccc(/C=N/Nc2nc(Cl)nc3ccccc23)c1 | inactive: 3.24% | 
COC(=O)[C@H](Cc1ccccc1)NC(=O)N1CCCCCC1 |  | inconclusive: 16.4 µM [rising, single point]
O=S(=O)(c1ccccc1)n1nc(-c2ccccc2)nc1NCc1ccc(Cl)cc1 |  | inconclusive: 16.4 µM [cytotoxic, single point]
O=C(O)CCN1C(=O)c2ccc(Oc3ccc([N+](=O)[O-])cc3)cc2C1=O |  | inconclusive: 29.1 µM [rising, single point]
COc1cc(OC)c(C(=O)OCC(=O)Nc2cccc(S(=O)(=O)NC3=NCCCCC3)c2)cc1OC |  | inconclusive: 25.9 µM [cytotoxic, single point]
CC(C)CCN(Cc1ccco1)C(=O)c1cc2c(Cl)nc3ccccc3c2s1 |  | inconclusive: 16.4 µM [rising, single point]
O=C(NNc1ccccc1C(F)(F)F)c1sccc1Br |  | inconclusive: 32.6 µM [cytotoxic, single point]
CCn1c(COc2ccc(=O)n(-c3ccccc3)n2)nnc1SCc1ccc(OC)cc1 |  | active: 18.4 µM
CCC(C)(C(=O)NC1CCCCC1)N(Cc1cccs1)C(=O)Cc1cccs1 (stereo unspecified) |  | active: 13 µM
Cc1ccc(S(=O)(=O)N2CC3(C)CN(S(=O)(=O)c4ccc(C)cc4)CC(C)(C2)C3=O)cc1 |  | active: 0.731 µM
COc1cc(/C=N/NC(=S)NCc2ccco2)cc(OC)c1OC |  | inconclusive: 11.6 µM [cytotoxic, partial curve]
Cc1ccc(-c2cc(C(=O)Nc3ccccc3C(N)=O)c3ccccc3n2)o1 |  | inconclusive: 5.17 µM [cytotoxic, partial curve, poor fit]
O=C(NC(=S)Nc1nc(-c2cccc3ccccc23)cs1)c1cc2ccccc2o1 |  | inconclusive: 20.6 µM [cytotoxic, single point]
Cc1occc1C(=O)NNC(=O)c1ccccc1C(=O)O | inactive: 17.6% | 
COc1ccc(CCN2CC(C(=O)OCc3ccccc3Cl)CC2=O)cc1OC (stereo unspecified) | inactive: 9.71% | 
Cn1nc(-c2ccc(Cl)cc2)c2cc(C(=O)NCCN3CCOCC3)sc21 |  | inconclusive: 32.6 µM [cytotoxic, single point]
CCOc1ccc(CC(=O)N2CCN=C2SCc2ccc([N+](=O)[O-])cc2)cc1 |  | inconclusive: 14.6 µM [cytotoxic, partial curve, poor fit]
COc1ccc(C2C(C(=O)/C=C/c3ccco3)=C(O)C(=O)N2CCN2CCOCC2)cc1OC (stereo unspecified) |  | inconclusive: 29.1 µM [rising, partial curve, poor fit]

SMILES | activity change, negative = cytotoxicity | Potency
CCOC(=O)C(CC)/C(C)=N\NC(=O)c1ccccc1O (stereo unspecified) |  | active: 2.06 µM
COCCOc1ccc(C(F)(F)F)cc1N |  | inconclusive: 25.9 µM [rising, single point]
COc1ccc2c(c1OC)C(=O)OC2Nc1nc(-c2ccc(-c3ccccc3)cc2)cs1 (stereo unspecified) | inconclusive: -94.8% | 
Cc1[nH][nH]c(=O)c1N=Nc1ccc(Br)c(Cl)c1 | inconclusive: -53.5% | 
O=C(O)/C=C/C(=O)N1CCN(S(=O)(=O)c2cc(C(F)(F)F)ccc2Cl)CC1 |  | inconclusive: 18.4 µM [rising, partial curve, poor fit]
C[C@@H]1CN([C@H](C)CO)C(=O)c2cc(NS(=O)(=O)c3cccs3)ccc2O[C@H]1CN(C)Cc1ccccc1 | inactive: -0.351% | 
CC(=O)Nc1ccc(-c2sc(Nc3ccccc3)n[n+]2C)cc1 | inactive: 26% | 
Cc1ccc(CN2C(=O)c3ccccc3C2c2nnnn2-c2c(C)cccc2C)cc1 (stereo unspecified) |  | inconclusive: 29.1 µM [cytotoxic, partial curve, poor fit]
CCOc1ccc(NC(=O)Nc2ccc3nccnc3c2)cc1 |  | inconclusive: 16.4 µM [cytotoxic, single point]
CCOc1ccccc1NC(=O)Nc1nnc(N2CCCCCC2)s1 | inactive: 10% | 
CCOC(=O)c1c(C)[nH]sc1=S |  | inconclusive: 7.31 µM [rising, partial curve, poor fit]
COc1ccccc1C(=O)COC(=O)/C(=C/c1ccccc1)NC(C)=O |  | inconclusive: 23.1 µM [cytotoxic, partial curve, poor fit]
COc1cc(C(=O)Nc2ccc3oc(-c4ccccc4)nc3c2)cc(OC)c1OC |  | active: 8.2 µM
COc1cc(NC(=O)Cn2ncc3c([nH]c4ccc(C)cc43)c2=O)cc(OC)c1OC | inactive: 11.6% | 
O=C(NC(Nc1ncccn1)C(=O)c1ccccc1)c1ccccc1 (stereo unspecified) |  | inconclusive: 18.4 µM [cytotoxic, single point]
CCC(C)CCN1CCN=C1Nc1ccccc1 (stereo unspecified) | inactive: 0% | 
CC(=O)C(C(C)=O)c1c(Cl)c(O)c(O)c2c(C(=O)c3ccccc3)coc12 |  | inconclusive: 29.1 µM [cytotoxic, single point]
O=C(CN1C(=O)NC2(CCCCC2)C1=O)NNC(=O)C1CC1 |  | inconclusive: 29.1 µM [cytotoxic, single point]
COC(=O)[C@]12CCCCC=C1N(Cc1ccccc1)C(=O)[C@H](CC(=O)NCc1ccc(OC)c(OC)c1)C2 |  | inconclusive: 8.2 µM [cytotoxic, partial curve]
CCCCN(CC)CCNc1c(NC2CCN(C(=O)OCC)CC2)c(=O)c1=O |  | inconclusive: 16.4 µM [rising, partial curve, poor fit]
C(=C\c1ccc2nncn2c1)/c1ccccc1 |  | inconclusive: 23.1 µM [cytotoxic, single point]
CCOc1ccc(C(=O)Nc2ccccc2C(=O)O)cc1 | inactive: -23.4% | 
CC(C)c1ccc(C(=O)NCCCN2CCOCC2)cc1 | inactive: 8.23% | 
